The supplement of paper PMC4683952
Structures can show the parent of a compound that is named as a salt. Out of some 1,200 compounds screened, about 50 (4%) showed activity. Cut-off read from the data, not from the text of the source: all actives reach 1.3 or more but so do some inactives. This is one part of the list.

test system: Lgr5 (MarsCy1-Lgr5-EGFP, U2OS); assay: cell-surface Lgr5 expression (SCi1 fluorescence, background-subtracted) relative to WT DMSO (fold of DMSO control); higher = more Lgr5 at the plasma membrane, active = hit call of the paper; settings: U2OS MarsCy1-Lgr5-EGFP stable; treatment time: overnight; 16 µM; library: Johns Hopkins Clinical Compound Library

SMILES	cell-surface Lgr5 expression
Cc1ccc2c(Br)cc(Br)c(O)c2n1 [Broquinaldol (5,7-dibromo-8-hydroxy-quinaldine)]	inactive: 1.1
CC(=O)OCC(COC(C)=O)OC(C)=O [Triacetin]	inactive: 0.869
NCCC[C@H](N)C(=O)O [L-Ornithine]	inactive: 0.718
CC[C@H]1OC(=O)[C@H](C)[C@@H](O[C@H]2C[C@@](C)(OC)[C@@H](O)[C@H](C)O2)[C@H](C)[C@@H](O[C@@H]2O[C@H](C)C[C@H](N(C)C)[C@H]2O)[C@](C)(O)C[C@@H](C)/C(=N\OCOCCOC)[C@H](C)[C@@H](O)[C@]1(C)O [Roxithromycin]	inactive: 0.978
CC(=O)N[C@@H](CC(C)C)C(=O)O [N-Acetyl-L-leucine]	inactive: 1.16
[I-].[Na+] [Sodium iodide]	inactive: 1.13
COc1cc(S(=O)(=O)O)ccc1O [Potassium guaiacolsulfonate]	inactive: 1.11
COc1cc(S(=O)(=O)O)ccc1O [Guaiacolsulfonic acid potassium salt]	inactive: 1.19
O=C1CN2Cc3c(ccc(Cl)c3Cl)N=C2N1 [Anagrelide hydrochloride]	inactive: 0.898
CC(C)NCC(O)COc1ccc(COCCOC(C)C)cc1 (stereo unspecified) [Bisoprolol fumarate]	inactive: 1.09
CCN(Cc1ccncc1)C(=O)C(CO)c1ccccc1 (stereo unspecified) [Tropicamide]	inactive: 0.289
CCN(CC)CC#CCOC(=O)C(O)(c1ccccc1)C1CCCCC1 (stereo unspecified) [Oxybutynin chloride]	inactive: 0.687
OC(CCN1CCCCC1)(c1ccccc1)C1CC2C=CC1C2 (stereo unspecified) [Biperiden hydrochloride]	inactive: 0.801
COc1ccc(C(=O)NCc2cccnc2)cc1C(=O)NCc1cccnc1 [Picotamide]	inactive: 1.03
COc1cc2nc(N3CCN(C(=O)c4ccco4)CC3)nc(N)c2cc1OC [Prazosin]	inactive: 0.986
CCn1cc(C(=O)O)c(=O)c2cnc(N3CCNCC3)nc21 [Pipemidic acid]	inactive: 1.15
[O]=[Mg] [Magnesium oxide]	inactive: 0.953
N=C(N)N1Cc2ccccc2C(O)C1 (stereo unspecified) [4-Hydroxydebrisoquin]	inactive: 1.07
CCC(C)C(C(=O)OCC[N+](C)(CC)CC)c1ccccc1 (stereo unspecified) [Valethamate bromide]	inactive: 1.1
C#CCN(C)Cc1ccccc1 [Pargyline (N-Methyl-N-Propargylbenzylamine)]	inactive: 0.981
COc1ccc2cc(CCC(C)=O)ccc2c1 [Nabumetone]	active: 1.32
O=C(O)CCC(=O)OC[C@@H](NC(=O)C(Cl)Cl)[C@H](O)c1ccc([N+](=O)[O-])cc1 [Chloramphenicol succinate sodium salt]	inactive: 0.813
CCCCCC(C)N (stereo unspecified) [Tuaminoheptane (2-aminoheptane)]	inactive: 1.06

SMILES	cell-surface Lgr5 expression
CCN(CC)CCNC(=O)c1cc(S(C)(=O)=O)ccc1OC [Tiapride]	inactive: 1.28
CC1(C)OC(=O)NC1=O [Dimethadione (5,5 dimethyl-2,4oxazolidinedione)]	inactive: 1.28
N=C(N)NCC1COC2(CCCCC2)O1 (stereo unspecified) [Guanadrel sulfate]	inactive: 1.02
Cn1nnnc1SCC1=C(C(=O)O)N2C(=O)[C@@H](NC(=O)[C@H](O)c3ccccc3)[C@H]2SC1 [Cefamandole]	inactive: 1.1
CCCC(=O)O[C@]1(C(=O)COC(C)=O)CC[C@H]2[C@@H]3C[C@H](F)C4=CC(=O)C=C[C@]4(C)[C@@]3(F)[C@@H](O)C[C@@]21C	active: 1.57
Nc1ccc(C(=O)NCC(=O)O)cc1 [Aminohippuric acid (p-aminohippuritic acid)]	inactive: 0.677
Nc1ccc(S(=O)(=O)c2ccc(N)cc2)cc1 [Dapsone (4-Aminophenyl sulfone)]	inactive: 1.25
Nc1ccc(S(=O)(=O)c2ccc(N)cc2)cc1	inactive: 0.776
OC[C@H]1O[C@@H](Oc2ccc(O)cc2)[C@H](O)[C@@H](O)[C@@H]1O [Arbutin]	inactive: 0.885
[Br-].[Br-].[Mg+2] [Magnesium bromide]	inactive: 0.496
N[C@H]1C(O)O[C@H](CO)[C@@H](O)[C@@H]1O (stereo partly specified) [Glucosamine]	inactive: 1.06
O=P([O-])([O-])[O-].O=P([O-])([O-])[O-].[Ca+2].[Ca+2].[Ca+2] [Calcium phosphate tribasic]	inactive: 0.836
C=C1C[C@H]2[C@@H]3C=C(C)C4=CC(=O)CC[C@]4(C)[C@H]3CC[C@]2(C)[C@@]1(OC(C)=O)C(C)=O [Melengestrol acetate]	active: 1.58
O[C@@H]1[C@H](O)[C@@H](O)C=C[C@H]1O [Conduritol]	inactive: 1.03
CC(=O)Oc1cccc2c1C(=O)c1c(OC(C)=O)cc(C(=O)O)cc1C2=O [Diacerein]	inactive: 0.994
Cc1ncc(CSSCc2cnc(C)c(O)c2CO)c(CO)c1O [Pyrithioxin]	inactive: 1.16
CN1CCCCC1CCN1c2ccccc2Sc2ccc([S+](C)[O-])cc21 (stereo unspecified) [Mesoridazine besylate]	inactive: 0.596
NC(=O)N/N=C/c1ccc([N+](=O)[O-])o1 [Nitrofurazone (5-Nitro-2-Furaldehyde Semicarbazone)]	inactive: 1.1
CN(C)CCC[C@@]1(c2ccc(F)cc2)OCc2cc(C#N)ccc21 [Escitalopram oxalate]	inactive: 0.627
FC(F)(F)C(F)(F)C(F)(F)C(F)(F)C(F)(F)C(F)(F)C(F)(F)C(F)(F)Br [Perflubron (Perfluorooctyl bromide)]	inactive: 0.824
CN1CCCC(n2nc(Cc3ccc(Cl)cc3)c3ccccc3c2=O)CC1 (stereo unspecified) [Azelastine HCl]	inactive: 1.03
C1CNCCN1 [Piperazine]	inactive: 1.21
Nc1cc(C(Cl)=C(Cl)Cl)c(S(N)(=O)=O)cc1S(N)(=O)=O [Clorsulon]	inactive: 1.12

Retrieved one by one from above (4):
SMILES	cell-surface Lgr5 expression
CC(C)NCC(O)COc1ccc(COCCOC(C)C)cc1 (stereo unspecified) [Bisoprolol fumarate]	inactive: 1.09
Cn1nnnc1SCC1=C(C(=O)O)N2C(=O)[C@@H](NC(=O)[C@H](O)c3ccccc3)[C@H]2SC1 [Cefamandole]	inactive: 1.1
CCN(Cc1ccncc1)C(=O)C(CO)c1ccccc1 (stereo unspecified) [Tropicamide]	inactive: 0.289
Cc1ccc2c(Br)cc(Br)c(O)c2n1 [Broquinaldol (5,7-dibromo-8-hydroxy-quinaldine)]	inactive: 1.1
